Measurements reported in paper PMC10409813.

Protein sequences, listed by entry. Tags and fused reporters are not part of them.
UniProt O94649: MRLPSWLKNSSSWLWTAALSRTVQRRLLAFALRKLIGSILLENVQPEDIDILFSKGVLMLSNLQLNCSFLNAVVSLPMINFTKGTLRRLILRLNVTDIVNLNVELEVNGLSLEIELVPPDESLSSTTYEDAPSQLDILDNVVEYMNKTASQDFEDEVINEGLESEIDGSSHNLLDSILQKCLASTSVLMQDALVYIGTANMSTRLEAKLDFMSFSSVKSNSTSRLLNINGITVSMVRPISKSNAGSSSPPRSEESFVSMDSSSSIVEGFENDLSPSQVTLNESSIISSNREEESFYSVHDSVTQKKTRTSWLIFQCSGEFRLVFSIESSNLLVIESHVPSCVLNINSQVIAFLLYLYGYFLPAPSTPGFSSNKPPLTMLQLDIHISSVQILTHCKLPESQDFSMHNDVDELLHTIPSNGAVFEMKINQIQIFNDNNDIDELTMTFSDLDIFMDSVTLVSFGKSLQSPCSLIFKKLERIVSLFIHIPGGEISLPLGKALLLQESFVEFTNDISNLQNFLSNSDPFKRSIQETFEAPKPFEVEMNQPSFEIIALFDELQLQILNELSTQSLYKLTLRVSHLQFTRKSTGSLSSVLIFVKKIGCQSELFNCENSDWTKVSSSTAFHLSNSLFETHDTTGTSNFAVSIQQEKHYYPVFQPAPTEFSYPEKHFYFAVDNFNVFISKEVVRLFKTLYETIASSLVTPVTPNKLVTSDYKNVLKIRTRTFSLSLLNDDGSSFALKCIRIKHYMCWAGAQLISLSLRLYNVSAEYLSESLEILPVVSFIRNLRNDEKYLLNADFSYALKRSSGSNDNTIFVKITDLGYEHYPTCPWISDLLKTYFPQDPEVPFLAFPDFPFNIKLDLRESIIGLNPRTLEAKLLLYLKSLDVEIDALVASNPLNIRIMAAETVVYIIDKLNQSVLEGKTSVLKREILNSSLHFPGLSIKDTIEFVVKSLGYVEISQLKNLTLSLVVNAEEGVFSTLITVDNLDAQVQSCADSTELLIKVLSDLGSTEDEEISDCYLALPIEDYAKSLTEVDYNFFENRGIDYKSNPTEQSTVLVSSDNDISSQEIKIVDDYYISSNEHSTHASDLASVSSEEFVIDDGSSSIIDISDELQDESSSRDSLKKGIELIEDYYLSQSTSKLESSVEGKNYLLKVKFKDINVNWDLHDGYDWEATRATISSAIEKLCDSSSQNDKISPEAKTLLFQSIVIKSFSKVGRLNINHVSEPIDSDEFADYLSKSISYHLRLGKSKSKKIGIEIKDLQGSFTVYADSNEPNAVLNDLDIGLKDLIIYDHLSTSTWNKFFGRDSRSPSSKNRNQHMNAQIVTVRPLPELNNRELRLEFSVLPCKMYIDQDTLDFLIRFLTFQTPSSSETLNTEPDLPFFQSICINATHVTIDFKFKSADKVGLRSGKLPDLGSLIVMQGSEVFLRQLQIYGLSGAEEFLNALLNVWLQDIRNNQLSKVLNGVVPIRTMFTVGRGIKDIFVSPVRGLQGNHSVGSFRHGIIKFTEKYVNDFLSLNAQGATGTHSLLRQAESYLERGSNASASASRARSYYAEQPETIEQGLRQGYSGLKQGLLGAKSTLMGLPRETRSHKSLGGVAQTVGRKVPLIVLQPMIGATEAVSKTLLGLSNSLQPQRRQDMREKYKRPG

T1: FLAG-tagged S. pombe Rop1 (S. pombe) (UniProt O14355)
T1 sequence: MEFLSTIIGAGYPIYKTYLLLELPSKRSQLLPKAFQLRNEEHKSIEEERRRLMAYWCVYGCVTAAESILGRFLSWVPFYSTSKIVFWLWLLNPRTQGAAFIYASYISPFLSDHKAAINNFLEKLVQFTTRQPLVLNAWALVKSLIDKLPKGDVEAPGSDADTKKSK

T2: FLAG-tagged S. pombe Yop1 (S. pombe) (UniProt Q9UU91)
T2 sequence: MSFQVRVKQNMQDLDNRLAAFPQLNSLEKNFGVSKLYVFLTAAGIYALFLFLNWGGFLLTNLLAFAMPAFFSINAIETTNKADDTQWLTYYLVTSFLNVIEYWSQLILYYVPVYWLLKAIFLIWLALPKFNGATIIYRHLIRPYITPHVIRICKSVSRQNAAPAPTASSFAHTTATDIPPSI


Assays:
[1] = molecular target: T1, FLAG-tagged S. pombe Rop1 (S. pombe); assay: affinity purification with mass spectrometry; Rop1-FLAG or Yop1-FLAG at endogenous levels in S. pombe, logarithmic phase (YES) or starved (EMM-N, 2 h); membrane fraction solubilized in 1% DDM, M2 resin, elution with 3xFLAG peptide, label-free mass spectrometry
[2] = molecular target: T2, FLAG-tagged S. pombe Yop1 (S. pombe); assay: as above

Row | Molecule | binding [1] | binding [2]
1 | Atg2 (from UniProt O94649 1-1646) | no binding | –
2 | Atg9 (protein, UniProt O74312 1-702) MFYQPAQNKKQYDDLADIEAQNNVPNTQEVLEAWQESLDSDEDESSPLEESNGFTISEHDDFVKSVPRKNNPTDLLYSGKLLDSDEPPSVHGNSSKVPSKHPSPSFPETTSLRNLQNGSKQKPALPNFNDPHFYNEDVTRSGHPNRSIYTQLPRNEFSNARVLWNRLSARDRVLWRWANVENLDSFLQQVYTYYTGKGLSCIIVHRLFQILTVSFVIGFTTFITSCIDWPAVTPHGSLAGVTKSQCIAQMSPITYLVLWLFLSFLLALWIYYLTDIPRLWQMREFYIHALKIATADMPTVSWQRVLYRLLKLKNVNALTAEDGRVVSLHNMKRLDAYAIANRIMRKDNYFIALINNGIINIELPLLHRRILTHTTEWNINWCIFNFVFDEQGQLRSAFRNPNSRKRLSEELRRRFIVAGFLNCLFAPIVAIYLVIHNFFRYFNEYHKNPGALSTRRYTPLALWTFREYNELQHFFDERINDSYAAASHYVSQFPDFNMIRLFKYISFILGSFTAILVIITVFDPELMVTFEITKDRSVLFYLGLFGSLIAVSRSIIPDETLVFAPEKALRRVITFTHYMPGWWSDNMHSKAVQQEFCSLYSYRIVNLLWEILGILLTPVLLFFTFPSCSQDIVDFFREHTINVEGVGYVCSYAVFQDNPPYESVASLVQSRKISPLIQNKPELSRISFYEQFNTEAPRRDLR | no binding | no binding

These are yes or no findings as the source states them, for the method shown. Binding seen in cells or lysates may run through a third protein. Here binding means that the protein was enriched with, or labelled near, the bait; the list need not be complete. A no says only that the protein was not detected with the bait. Tags and fused reporters may be left off the sequences shown.
